# Assay results: patent publication EP4772186A1, “USE AND COMPOSITION OF POSTBIOTIC OF LACTOBACILLUS PARACASEI ET-22” (Inner Mongolia Yili Industrial Group Co., Ltd., priority 2023, dated 2026)
# At least one peptide structure holds a part that was inferred or is arguable (an end, a ring closure or a residue). Non-standard residues stand in square brackets, D forms with d. Residues, ends and D or L forms follow the SMILES beside them. Hyp = O=C(O)[C@@H]1C[C@@H](O)CN1
# What was measured:
# [1] = system: indole, hexanoic acid, and propanoic acid; test: SPME-GC-MS of characteristic flavor compounds; assay type: cell-based, halitosis subjects (saliva); settings: pure components 100 µg/ml; others from 1.0×10^9 CFU/ml; 10 hours
# [2] = system: VSC concentration; test: in vitro Halimeter determination of VSC concentration in saliva fermentation; assay type: cell-based, halitosis subjects (saliva); settings: compared with CK group, anaerobic cultivation 10 hours
# [3] = system: Solobacterium moorei; test: in vitro oral biofilm model, sequencing: relative abundance; assay type: cell-based; settings: multi-species biofilm, 37°C 10 hours
# [4] = system: Fusobacterium nucleatum; test: as above; assay type: cell-based; settings: multi-species biofilm; stated with reference to Section 6.2
# [5] = system: biofilm; test: scanning electron microscopy (SEM) of biofilm on HA disc; assay type: cell-based, halitosis subjects (saliva); settings: pure components 100 µg/ml, others from 1.0×10^9 CFU/ml, 37°C 10 hours
# [6] = system: volatile organic compounds (VOCs); test: SPME-GC-MS of volatile organic compounds (VOCs) in saliva fermentation; assay type: cell-based, halitosis subjects (saliva); settings: 100 µg/ml
compound,measurement,setting,value
"C[C@H](NC(=O)CNC(=O)[C@@H]1C[C@@H](O)CN1C(=O)[C@@H]1CCCN1C(=O)CN)C(=O)NCC(=O)O [GP(Hyp)GAG, Gly-Pro-Hyp-Gly-Ala-Gly] (H-GP[Hyp]GAG-OH)",hexanoic acid concentration,[1],not detected
same,propanoic acid concentration,[1],not detected
same,VSC concentration,[2]; high concentration (500 µg/ml),significantly reduced VSC concentration
same,VSC concentration,[2]; medium concentration (100 µg/ml),significantly reduced VSC concentration
same,growth of Solobacterium moorei (relative abundance),[3],significantly inhibit the growth
same,growth of Fusobacterium nucleatum,[4],can inhibit the growth
same,biofilm structure (SEM observation),[5],"the bacterial morphology of biofilm is almost invisible, the biofilm structure is relatively loose"
same,number of acid compounds (VOCs),[6]; 10 hours,significantly decrease
same,number of flavor-active acid compounds,[6]; among 71 aroma-active VOCs,significantly decreases
